This is one part of the list. Many values rest on one well or one pass, so single values are uncertain.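 The apoptosis fraction was the count of cleaved-PARP antibody-stained nuclei relative to all DNA-stained nuclei, imaged in 1,536-well plates. Screening doses were set so most cells survived, and baseline and induced cleaved-PARP levels vary greatly across cell lines.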

The assay concerns MEL-HO. Description: cleaved PARP positive nuclei fraction relative to DMSO control; melanoma cells; higher = more apoptosis. Conditions: library dose: low library concentration; 72 h.
Consider `C[C@@H](Oc1cc(-c2cnn(C3CCNCC3)c2)cnc1N)c1c(Cl)ccc(F)c1Cl` [Crizotinib] + O=C(O)c1ccc(-c2c[nH]c3ncc(-c4ccccc4)cc23)cc1C1CCCC1 [GSK650394] (first compound 0.2 µM, partner dose 0.16 µM), for which the “cleaved PARP positive nuclei fraction” value came out at 144%.

For the compound `CS(=O)(=O)CCNCc1ccc(-c2ccc3ncnc(Nc4ccc(OCc5cccc(F)c5)c(Cl)c4)c3c2)o1` [lapatinib] + NC(=O)Nc1cc(-c2cccc(F)c2)sc1C(=O)N[C@H]1CCCNC1 [AZD7762] (first compound 0.8 µM, partner dose 0.02 µM), the “cleaved PARP positive nuclei fraction” value amounted to 88.7%. Next, `CNC(=O)c1cc(Oc2ccc(NC(=O)Nc3ccc(Cl)c(C(F)(F)F)c3)cc2)ccn1` [sorafenib] + NC(=O)Nc1cc(-c2cccc(F)c2)sc1C(=O)N[C@H]1CCCNC1 [AZD7762] (first compound 0.4 µM, partner dose 0.02 µM): 255%; `CN1CCN(c2ccc3nc(-c4c(N)c5c(F)cccc5[nH]c4=O)[nH]c3c2)CC1` [Dovitinib] + NCC(=O)Nc1ccc(-n2nc(C(F)(F)F)cc2-c2ccc3c(ccc4ccccc43)c2)cc1 [OSU03012] (first compound 0.1 µM, partner dose 1 µM): 98.7%; `C=C(c1ccc(C(=O)O)cc1)c1cc2c(cc1C)C(C)(C)CCC2(C)C` [Bexarotene] + NC(=O)Nc1cc(-c2cccc(F)c2)sc1C(=O)N[C@H]1CCCNC1 [AZD7762] (first compound 2 µM, partner dose 0.02 µM): 92.6%.

The record behind these values is the supplement of paper PMC4604168 (melanoma cell lines).
